Data from patent US20220260588A1.
These are yes or no findings as the source states them, for the method shown. Some results given as binding are weak or reduced against the parent protein; the word gives no strength. For part of these data: Sequences can lack the tags named with a protein.

Experiments:
[1] = target: T1, peptides with the consensus motif WDETKGE (human); assay: peptide microarray, antibody at 1 and 10 ug/ml
T1 sequence (peptide): WDETKGE

[2] = target: T2, recombinant His6-tagged Mcm5 (fragment of human MCM5 expressed in E. coli) (human) (UniProt P33992); assay: colorimetric screening ELISA on His-tagged Mcm5 on Ni-NTA plate
T2 sequence: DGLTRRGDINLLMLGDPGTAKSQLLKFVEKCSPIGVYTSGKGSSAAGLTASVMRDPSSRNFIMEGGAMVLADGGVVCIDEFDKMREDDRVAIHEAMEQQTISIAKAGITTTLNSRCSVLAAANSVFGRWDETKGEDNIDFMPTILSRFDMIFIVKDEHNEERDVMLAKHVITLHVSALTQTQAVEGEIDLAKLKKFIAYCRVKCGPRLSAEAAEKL

[3] = target: T2, recombinant His6-tagged Mcm5 (fragment of human MCM5 expressed in E. coli) (human); assay: ELISA, dilution of purified MAb on antigen-limiting 25 ng/well Mcm5 on Ni-NTA plate
[4] = target: T2, recombinant His6-tagged Mcm5 (fragment of human MCM5 expressed in E. coli) (human); assay: colorimetric screening ELISA, hybridoma supernatant on His-tagged Mcm5 on Ni-NTA plate, goat anti-mouse IgG-HRP
[5] = target: T3, peptides with the consensus motif DDRVAIH (human); assay: peptide microarray, antibody at 1 and 10 ug/ml
T3 sequence (peptide): DDRVAIH

Measured: binding

B1: mouse monoclonal IgG antibody 12A7 (antibody, V domains shown)
VH: QQDLQQSGPGILQPTQTLSLTCSFSGFSLSTSGMGVSWIRQSSNMGLEWLAHIFWDDDKRYNPSLRSRLTLSKDTSSSQVFLMITSVSTADSATYYCARRSDYNYYSMDYWGQGTAVTVSS
VL: DIMLTQSPLSLSVTLGDQASISCRSSQNLVQSNGNTYLTWYLQKPGQSPKVLINKVSNRFYGVPDRFSGSGSGTDFTLRISRVEAEDLGIYFCSQSTRVPYTFGGGTKLEIRR
not listed: [5]
binds: all other assays above

B2: mouse monoclonal IgG antibody 4B4 (antibody, V domains shown)
VH: VKLQESGGGLVKPGGSLKLSCAASGFTFSNYAMSWVRQNPEKRLEWVATISRGGSYTYYPDSVKGRFTISRDNAKNTLYLQMNSLRSEDTAMYFCARHGYNYDDGAWFANWGQGTLVTVSA
VL: DIMLTQSPSSLSASLGERVSLTCRASQDIGSSLNWLQQEPDGTIKRLIYATSSLDSGVPKRFSGSRSGSDYSLTISSLESEDFVDYYCLQYASSPPTFGGGTKLEIK
binds: [5] | [1]
